Measured values reported in the supplement of paper PMC12819154, “High-throughput peptide-centric local stability assay extends protein–ligand identification to membrane proteins, tissues and bacteria” (Nature Structural & Molecular Biology, 2025).
The list shows a part of the results. Most values lie at the level of the controls, where differences are scatter.

Chains of the proteins cited; added tags and fusions are not shown. Lines headed by an entry give the natural chain unless they say otherwise; changes in a name come on top.
UniProt O95644: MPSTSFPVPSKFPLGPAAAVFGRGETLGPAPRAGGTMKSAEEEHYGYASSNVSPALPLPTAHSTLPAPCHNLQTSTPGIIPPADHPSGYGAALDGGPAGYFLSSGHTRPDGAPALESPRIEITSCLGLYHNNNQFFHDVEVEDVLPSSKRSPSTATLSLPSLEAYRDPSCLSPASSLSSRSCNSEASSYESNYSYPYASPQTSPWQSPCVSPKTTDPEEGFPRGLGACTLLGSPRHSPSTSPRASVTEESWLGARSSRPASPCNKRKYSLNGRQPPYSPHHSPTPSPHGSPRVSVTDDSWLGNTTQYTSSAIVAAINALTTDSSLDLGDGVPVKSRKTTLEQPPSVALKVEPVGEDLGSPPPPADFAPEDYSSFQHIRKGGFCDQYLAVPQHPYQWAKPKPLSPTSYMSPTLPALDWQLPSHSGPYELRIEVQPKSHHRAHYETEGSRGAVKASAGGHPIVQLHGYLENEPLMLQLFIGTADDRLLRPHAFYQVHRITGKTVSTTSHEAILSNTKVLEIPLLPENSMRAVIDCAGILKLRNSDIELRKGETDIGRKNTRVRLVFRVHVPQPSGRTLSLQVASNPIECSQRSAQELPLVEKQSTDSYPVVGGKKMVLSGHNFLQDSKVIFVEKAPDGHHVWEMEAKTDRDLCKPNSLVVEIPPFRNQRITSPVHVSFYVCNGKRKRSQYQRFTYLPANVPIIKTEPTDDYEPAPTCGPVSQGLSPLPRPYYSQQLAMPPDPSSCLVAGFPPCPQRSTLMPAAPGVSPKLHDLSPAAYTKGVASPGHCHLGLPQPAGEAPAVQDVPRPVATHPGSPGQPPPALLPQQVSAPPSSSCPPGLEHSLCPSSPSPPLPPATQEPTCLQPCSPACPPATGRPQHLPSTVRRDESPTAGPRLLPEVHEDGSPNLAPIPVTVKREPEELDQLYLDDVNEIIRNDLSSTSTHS
UniProt O95271: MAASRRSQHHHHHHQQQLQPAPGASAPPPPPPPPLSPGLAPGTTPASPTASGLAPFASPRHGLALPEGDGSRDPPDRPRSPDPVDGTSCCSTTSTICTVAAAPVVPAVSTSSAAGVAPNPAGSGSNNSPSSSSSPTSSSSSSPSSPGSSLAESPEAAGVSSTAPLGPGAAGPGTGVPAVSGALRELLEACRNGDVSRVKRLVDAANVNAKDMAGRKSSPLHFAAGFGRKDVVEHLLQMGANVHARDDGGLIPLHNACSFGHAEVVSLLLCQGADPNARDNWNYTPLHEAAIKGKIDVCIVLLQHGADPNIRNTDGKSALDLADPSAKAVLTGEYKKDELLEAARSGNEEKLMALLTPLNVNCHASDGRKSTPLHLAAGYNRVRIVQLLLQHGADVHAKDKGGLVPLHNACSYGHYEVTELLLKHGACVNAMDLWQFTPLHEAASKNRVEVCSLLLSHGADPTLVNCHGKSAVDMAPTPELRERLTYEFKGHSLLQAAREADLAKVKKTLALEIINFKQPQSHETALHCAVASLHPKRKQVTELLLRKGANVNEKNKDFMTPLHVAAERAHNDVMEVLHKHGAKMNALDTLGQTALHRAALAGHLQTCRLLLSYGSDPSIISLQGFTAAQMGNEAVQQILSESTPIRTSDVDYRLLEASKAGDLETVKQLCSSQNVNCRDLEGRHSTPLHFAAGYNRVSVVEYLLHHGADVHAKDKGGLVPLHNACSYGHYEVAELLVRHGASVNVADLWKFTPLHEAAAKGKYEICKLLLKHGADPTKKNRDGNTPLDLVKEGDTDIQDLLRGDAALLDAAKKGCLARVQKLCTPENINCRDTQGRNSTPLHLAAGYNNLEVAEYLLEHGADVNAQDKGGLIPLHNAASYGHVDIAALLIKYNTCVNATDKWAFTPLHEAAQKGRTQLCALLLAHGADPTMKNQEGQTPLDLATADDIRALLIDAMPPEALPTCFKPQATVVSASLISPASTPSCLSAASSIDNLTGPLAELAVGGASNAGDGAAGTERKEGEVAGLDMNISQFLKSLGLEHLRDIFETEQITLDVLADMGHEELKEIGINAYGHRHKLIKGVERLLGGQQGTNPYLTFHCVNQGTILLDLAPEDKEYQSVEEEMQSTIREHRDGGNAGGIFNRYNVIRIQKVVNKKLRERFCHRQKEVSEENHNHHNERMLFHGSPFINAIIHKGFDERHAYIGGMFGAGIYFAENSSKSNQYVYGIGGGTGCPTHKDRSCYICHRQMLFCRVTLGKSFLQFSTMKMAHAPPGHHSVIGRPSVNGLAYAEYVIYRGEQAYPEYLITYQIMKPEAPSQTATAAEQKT
UniProt O95568: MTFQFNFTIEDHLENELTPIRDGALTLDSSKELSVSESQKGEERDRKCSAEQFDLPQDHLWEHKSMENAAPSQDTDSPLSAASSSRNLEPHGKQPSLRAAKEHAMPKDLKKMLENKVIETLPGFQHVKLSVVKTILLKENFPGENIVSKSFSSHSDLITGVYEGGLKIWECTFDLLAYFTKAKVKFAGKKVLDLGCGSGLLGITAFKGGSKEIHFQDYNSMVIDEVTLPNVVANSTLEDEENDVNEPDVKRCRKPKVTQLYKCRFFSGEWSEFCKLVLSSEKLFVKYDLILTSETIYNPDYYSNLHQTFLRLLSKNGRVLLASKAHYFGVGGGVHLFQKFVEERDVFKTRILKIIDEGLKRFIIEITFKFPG
UniProt O94983: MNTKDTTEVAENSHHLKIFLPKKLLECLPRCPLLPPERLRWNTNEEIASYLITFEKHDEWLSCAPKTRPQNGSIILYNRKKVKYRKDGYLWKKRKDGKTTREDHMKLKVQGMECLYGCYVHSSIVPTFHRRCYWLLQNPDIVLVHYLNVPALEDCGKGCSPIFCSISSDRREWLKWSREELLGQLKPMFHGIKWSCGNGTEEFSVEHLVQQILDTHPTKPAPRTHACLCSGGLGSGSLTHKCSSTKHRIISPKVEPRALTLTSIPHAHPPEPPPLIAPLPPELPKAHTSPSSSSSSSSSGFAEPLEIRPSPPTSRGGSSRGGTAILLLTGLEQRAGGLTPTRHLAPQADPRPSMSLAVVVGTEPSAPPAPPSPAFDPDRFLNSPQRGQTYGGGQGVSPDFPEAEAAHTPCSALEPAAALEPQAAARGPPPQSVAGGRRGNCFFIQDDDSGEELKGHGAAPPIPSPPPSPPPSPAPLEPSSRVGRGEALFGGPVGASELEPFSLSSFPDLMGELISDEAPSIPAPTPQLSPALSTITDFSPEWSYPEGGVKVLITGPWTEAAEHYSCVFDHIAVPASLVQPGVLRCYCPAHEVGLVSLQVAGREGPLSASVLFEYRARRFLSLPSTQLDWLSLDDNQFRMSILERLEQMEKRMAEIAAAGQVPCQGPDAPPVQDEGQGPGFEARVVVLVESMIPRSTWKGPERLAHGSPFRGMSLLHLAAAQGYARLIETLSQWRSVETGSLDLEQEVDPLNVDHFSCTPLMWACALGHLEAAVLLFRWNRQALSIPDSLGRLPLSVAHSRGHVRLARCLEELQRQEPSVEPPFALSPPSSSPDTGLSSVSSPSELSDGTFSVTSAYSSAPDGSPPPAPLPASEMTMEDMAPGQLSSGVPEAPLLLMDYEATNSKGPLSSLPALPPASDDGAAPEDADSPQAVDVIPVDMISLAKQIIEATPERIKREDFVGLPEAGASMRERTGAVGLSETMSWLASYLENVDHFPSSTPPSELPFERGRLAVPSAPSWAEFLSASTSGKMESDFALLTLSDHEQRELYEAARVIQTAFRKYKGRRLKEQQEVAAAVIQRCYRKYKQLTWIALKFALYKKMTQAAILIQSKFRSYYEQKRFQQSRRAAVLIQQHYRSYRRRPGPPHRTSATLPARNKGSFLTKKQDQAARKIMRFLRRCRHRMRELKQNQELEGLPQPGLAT
UniProt O75843: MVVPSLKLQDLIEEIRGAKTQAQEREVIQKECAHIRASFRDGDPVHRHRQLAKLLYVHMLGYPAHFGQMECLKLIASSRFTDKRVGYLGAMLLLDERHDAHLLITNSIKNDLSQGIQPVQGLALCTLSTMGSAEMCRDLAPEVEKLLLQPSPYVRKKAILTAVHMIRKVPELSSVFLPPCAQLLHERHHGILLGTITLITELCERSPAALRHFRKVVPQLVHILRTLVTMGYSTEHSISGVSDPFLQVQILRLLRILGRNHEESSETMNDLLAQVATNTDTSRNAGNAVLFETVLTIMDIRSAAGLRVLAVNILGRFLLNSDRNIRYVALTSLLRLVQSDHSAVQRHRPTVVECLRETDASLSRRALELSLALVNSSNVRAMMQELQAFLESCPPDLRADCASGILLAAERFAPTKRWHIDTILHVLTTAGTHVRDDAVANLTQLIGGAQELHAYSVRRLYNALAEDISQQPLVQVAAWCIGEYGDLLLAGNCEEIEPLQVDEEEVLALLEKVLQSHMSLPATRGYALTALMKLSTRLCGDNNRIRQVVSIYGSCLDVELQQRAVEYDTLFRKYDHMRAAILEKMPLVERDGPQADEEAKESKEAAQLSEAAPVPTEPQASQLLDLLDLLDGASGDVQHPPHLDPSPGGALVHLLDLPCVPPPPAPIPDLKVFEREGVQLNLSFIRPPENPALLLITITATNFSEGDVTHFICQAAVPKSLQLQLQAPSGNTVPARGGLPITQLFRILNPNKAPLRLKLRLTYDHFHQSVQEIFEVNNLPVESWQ
UniProt O75459: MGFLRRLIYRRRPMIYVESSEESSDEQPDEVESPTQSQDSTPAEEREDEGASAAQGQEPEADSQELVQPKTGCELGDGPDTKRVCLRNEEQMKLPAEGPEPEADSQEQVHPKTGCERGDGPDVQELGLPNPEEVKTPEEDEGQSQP
UniProt O94992, whole entry: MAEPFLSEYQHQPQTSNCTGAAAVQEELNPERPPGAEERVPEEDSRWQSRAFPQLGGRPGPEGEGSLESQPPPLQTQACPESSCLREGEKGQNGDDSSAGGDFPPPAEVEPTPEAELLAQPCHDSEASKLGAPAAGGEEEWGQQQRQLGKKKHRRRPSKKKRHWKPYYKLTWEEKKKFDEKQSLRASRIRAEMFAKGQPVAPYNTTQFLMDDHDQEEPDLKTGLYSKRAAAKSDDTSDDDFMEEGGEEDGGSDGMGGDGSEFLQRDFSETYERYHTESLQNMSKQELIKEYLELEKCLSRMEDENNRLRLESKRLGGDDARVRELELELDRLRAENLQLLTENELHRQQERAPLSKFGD
UniProt O95372: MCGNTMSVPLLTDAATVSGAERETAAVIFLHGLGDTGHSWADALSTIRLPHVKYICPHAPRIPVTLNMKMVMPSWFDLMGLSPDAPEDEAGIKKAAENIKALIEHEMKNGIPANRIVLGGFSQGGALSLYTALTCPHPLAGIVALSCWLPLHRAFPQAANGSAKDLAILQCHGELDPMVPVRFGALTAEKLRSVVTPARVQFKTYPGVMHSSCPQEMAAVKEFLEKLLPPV
UniProt O94967: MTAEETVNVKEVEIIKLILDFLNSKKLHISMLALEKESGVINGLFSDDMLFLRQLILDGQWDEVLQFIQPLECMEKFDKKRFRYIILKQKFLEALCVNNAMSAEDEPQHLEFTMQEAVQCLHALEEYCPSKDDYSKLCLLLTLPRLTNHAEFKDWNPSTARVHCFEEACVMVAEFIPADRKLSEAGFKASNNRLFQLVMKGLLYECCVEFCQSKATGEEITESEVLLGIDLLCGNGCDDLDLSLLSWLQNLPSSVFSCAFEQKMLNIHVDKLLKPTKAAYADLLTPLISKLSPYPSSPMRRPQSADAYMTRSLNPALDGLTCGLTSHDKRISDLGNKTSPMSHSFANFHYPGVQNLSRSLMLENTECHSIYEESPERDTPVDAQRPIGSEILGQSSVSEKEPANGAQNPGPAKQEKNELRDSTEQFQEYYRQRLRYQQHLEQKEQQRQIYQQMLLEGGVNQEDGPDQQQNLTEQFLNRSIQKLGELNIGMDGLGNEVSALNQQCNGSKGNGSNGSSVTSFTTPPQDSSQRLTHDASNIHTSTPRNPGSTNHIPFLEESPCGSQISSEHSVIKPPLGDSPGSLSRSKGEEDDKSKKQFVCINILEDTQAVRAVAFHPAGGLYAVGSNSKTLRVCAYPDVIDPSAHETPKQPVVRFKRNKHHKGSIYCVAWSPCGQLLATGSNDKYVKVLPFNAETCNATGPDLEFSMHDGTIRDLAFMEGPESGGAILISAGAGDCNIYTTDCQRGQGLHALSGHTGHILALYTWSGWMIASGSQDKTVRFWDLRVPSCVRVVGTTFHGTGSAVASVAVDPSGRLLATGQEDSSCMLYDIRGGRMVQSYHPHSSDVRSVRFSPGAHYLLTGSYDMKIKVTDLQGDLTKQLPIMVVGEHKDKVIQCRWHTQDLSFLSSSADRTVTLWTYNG
UniProt O95571: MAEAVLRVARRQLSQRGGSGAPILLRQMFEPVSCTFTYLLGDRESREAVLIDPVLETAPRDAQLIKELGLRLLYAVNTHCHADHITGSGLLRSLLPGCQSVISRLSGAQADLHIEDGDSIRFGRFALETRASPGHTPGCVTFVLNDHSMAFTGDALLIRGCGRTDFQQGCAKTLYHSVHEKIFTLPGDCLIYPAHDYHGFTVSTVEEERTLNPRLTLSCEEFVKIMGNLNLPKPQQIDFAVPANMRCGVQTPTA

The targets below were run with Cc1nc(Nc2ncc(C(=O)Nc3c(C)cccc3Cl)s2)cc(N2CCN(CCO)CC2)n1 [dasatinib] (assay: log2 fold change of tryptic peptide abundance, ligand vs vehicle (limited proteolysis) (log2 ratio); higher = more trypsin-susceptible (destabilized)). Conditions: ligand concentration: 5 uM; sample: K562 cleared lysate.

Target | log2 fold change
NFATC1 (peptide sequence: GLGACTLLGSPR, peptide start residue: 224) (UniProt O95644) | 0.105
TNKS (peptide sequence: HGLALPEGDGSRDPPDRPR, peptide start residue: 61) (UniProt O95271) | 0.179
UniProt O95568 (peptide sequence: ENFPGENIVSK, peptide start residue: 139) | 0.124
UniProt O94983 (peptide sequence: RAAVLIQQHYR, peptide start residue: 1126) | -0.718
AP1G2 (peptide sequence: GYALTALMK, peptide start residue: 525) (UniProt O75843) | 0.359
PAGE1 (peptide sequence: VCLRNEEQMK, peptide start residue: 84) (UniProt O75459) | 0.141
HEXIM1 (peptide sequence: VRELELELDR, peptide start residue: 322) (UniProt O94992) | 0.421
LYPLA2 (peptide sequence: TYPGVMHSSCPQEMAAVK, peptide start residue: 204) (UniProt O95372) | -0.143
WDR47 (peptide sequence: RPQSADAYMTR, peptide start residue: 301) (UniProt O94967) | -0.194
ATE1 (peptide sequence: LGSGEPSHSVK, peptide start residue: 177) (UniProt O95260) | -0.19
ETHE1 (peptide sequence: TDFQQGCAK, peptide start residue: 164) (UniProt O95571) | -0.255

Single values from the entries so far.
Under log2 fold change, UniProt O94983 (peptide sequence: RAAVLIQQHYR, peptide start residue: 1126) reads -0.718
Under log2 fold change, LYPLA2 (peptide sequence: TYPGVMHSSCPQEMAAVK, peptide start residue: 204) (UniProt O95372) reads -0.143
